Assay results taken from patent US10800824B2, “AIMP1 protein fragment and skin-protecting composition containing same as active ingredient” (NEOMICS CO., LTD., priority 2016, dated 2020).
Part of at least one peptide drawing is inferred or uncertain, most often the ends. Some compounds share one wording; it may come from a single statement. No end group written: not given here.

Tests used:
[1] = PI of the polypeptides (Table 1); format: physicochemical
[2] = Tm of the polypeptides (Table 1); format: physicochemical
[3] = system: Human foreskin fibroblast; assay: Cell Counting Kit-8 assay, fibroblast proliferation; format: cell-based; conditions: 10 μM, 24 hours, CCK-8, FIG. 2
[4] = system: Human foreskin fibroblast; assay: Procollagen Type I ELISA assay (collagen synthesis induction); format: cell-based; conditions: 10 μM, 12 hours, FIG. 1

IEYLKQQVSLLKEKA [Polypeptide S1400, IEYLKQQVSLLKEKA]
PI [1]: 9.53
Tm [2]: >65
induction of fibroblast proliferation versus control group [3]: lower effect on inducing proliferation of fibloblast than control group
collagen synthesis induction versus control group (secreted procollagen type I) [4]: slightly better effect on inducing collagen synthesis than control group

KGAEADQIIEYLKQQ [Polypeptide S1300, KGAEADQIIEYLKQQ]
PI [1]: 4.43
Tm [2]: 55~65
induction of fibroblast proliferation versus control group [3]: induced proliferation of fibloblast more than control group
collagen synthesis induction versus control group (secreted procollagen type I) [4]: induced collagen synthesis more than control group

RLEQKGAEADQIIEY [Polypeptide S1200, RLEQKGAEADQIIEY]
PI [1]: 4.04
Tm [2]: <55
induction of fibroblast proliferation versus control group [3]: induced proliferation of fibloblast more than control group
collagen synthesis induction versus control group (secreted procollagen type I) [4]: induced collagen synthesis more than control group

AVLKRLEQKGAEADQIIEYLKQQVSLLKEKAILQATLREEK [Neo-Pep]
PI [1]: 9.33
Tm [2]: >65
induction of fibroblast proliferation versus control group [3]: induced proliferation of fibloblast more than control group
collagen synthesis induction versus control group (secreted procollagen type I) [4]: induced collagen synthesis more than control group
